Measured values taken from paper PMC10163288.
This is one part of the list.

B1: il2ra_site1_2b5i_normal_mot_HHH_b1_00095_000000042_0001_1_14_H_._HHH_b1_08235_0001_0000300013_0000001_0_af2pred_dldesign_0_af2pred (protein)
chain: SSSSLREQLTRLQDIHDELAALGDEEAEDEVDRLYEEFARTKDPSLLDRAEALLEEAKKKSSSSS
B2: il2ra_site1_3nfp_sap_17_mot_HHH_b1_05070_af2_000000282_0001_43_57_H_._HHH_b1_00176_0001_0000300005_0000001_0_0001_af2pred_0001_af2pred_swapped (protein)
chain: SSSSDEEKQKAFRLLQEANRLAAKGNEEEAEKLLEEAKELVEEVGNEVLKRIIEEALKILSSSSS
B3: il2ra_site2_3nfp_sap_16_mot_HHH_b1_05628_af2_000000064_0001_19_35_H_._HHH_b1_05613_af2_0001_0000700016_0000001_0_0001 (protein)
chain: SSSSSEEELRELVEQLRELVERNDKEEFRRLLAEAAHLAFELGDAEVFFRLAELLYEIEGSSSSS
B4: il2ra_site1_1z92_sap_25_mot_HHH_b1_08133_000000119_0001_1_19_H_._HHH_b2_04294_0001_0000400037_0000001_0_0001_af2pred_0001_af2pred (protein)
chain: SSSSSSSEVEEEAEELLEELKERGDEKELKSLELLLRAVKRSQNPRLREFLKKALEEQSSSSSSS
B5: il2ra_site1_2b5i_normal_mot_0e5a94e4a5addaac739760efb25f0f5d_0001_000000289_0001_18_32_H_._HHH_b1_07823_0001_0000400013_0000001_0_af2pred_dldesign_0_af2pred (protein)
chain: SSSSSSLEELTKEASELVARSNDRELLKELTKLIYHLTMTKDPRLVEELEAFLARARAEESSSSS
B6: il2ra_site1_3nfp_normal_mot_46d73865503fbedcaf0f3a45445d594c_0001_af2_000000151_0001_1_12_H_._83e3d52192ce5e5dff776c34d7d6184e_0001_1_0001_0000300011_0000001_1_ … (protein)
chain: SEEEVLRKLEELAKTPEERALVRLIEQAVEVYNIPPEEALRLLLETLRKAGDPRAELVEELARLG
B7: il2ra_site1_1z92_sap_12_mot_HHH_b2_03933_000000056_0001_18_34_H_._651d3f7ee3e35a0effb0e65a459b730c_0001_1_0001_0000400083_0000001_0_0001_af2pred_0001_af2pred (protein)
chain: DEEEAEELLREILKEQGNHEALERLLEHAERTFGDPKEALKALIRVALQLTGDPRLEEAEKLVRK
B8: il2ra_site2_2erj_normal_mot_HHH_eva_0385_af2_000000151_0001_25_42_H_._HHH_b2_02181_0001_0000100006_0000001_0_af2pred_0001_af2pred (protein)
chain: SSSSSSEEERKEVEELLEEAKKIEDKEEAAKVLQEAAELADKIDDPEAVELVEEVLRKLSSSSSS
B9: il2ra_site1_3nfp_sap_9_mot_HHH_b1_04931_000000291_0001_38_56_H_._HHH_b2_07412_0001_0000500030_0000001_0_0001_af2pred_0001_af2pred_1 (protein)
chain: SSSSSSEEEEERVRELLERAKKIEDLREAEELFEEAVKIARELKDPELLRLVLEFAHEVSSSSSS
B10: il2ra_site2_2erj_normal_mot_HHH_b2_06726_000000006_0001_1_16_H_._HHH_b1_02692_0001_0000800011_0000001_0 (protein)
chain: SSSSDLEEEIRELLERIEKLLEEGNREEAISLILEASRLIIELGDEELERELSKLFVRLYSSSSS
B11: il2ra_site1_3nfp_sap_12_mot_119b7766384adbe86006a62bce89dba1_0001_af2_000000052_0001_18_32_H_._HHH_b2_01389_0001_0000200012_0000001_0_0001_af2pred_0001_af2pred_ … (protein)
chain: SEELLKELAERLGDPLVREVVELLEEALEKGDPEASREFDELLKRLLKEGIIPPEVVFEVLKELA
B12: il2ra_site1_1z92_sap_8_mot_HHH_b2_08173_af2_000000034_0001_21_37_H_._b26a303360aa2756ef5b79665ce52f45_0001_0001_0000100012_0000001_0_0001_af2pred_0001_af2pred_1 … (protein)
chain: PEALERDFERSREQGIPPRSVARALLRALRALGHPPEEVEELVRQVLERLLGDPEEAREVLEEAK
B13: il2ra_site1_1z92_sap_25_mot_HHH_b1_01245_000000029_0001_23_39_H_._HHH_b1_01234_af2_0001_0000400036_0000001_0_0001 (protein)
chain: SSSSSELREELEELIKKLEKMGSEFAVEQLRAKLERYERTGDEHFVRSALRIAERLHRAANSSSS
B14: il2ra_site1_2b5i_normal_mot_22370d59370c406a0c205a431f537cfa_0001_af2_000000027_0001_1_31_H_._HHH_b1_00762_af2_0001_0000100004_0000001_0 (protein)
chain: SSSSDNEEVRRATEIVWRLASRYHLSAEQIQELVRLLEKLLEKGVSLEEVEEELEKLAEELSSSS
B15: il2ra_site2_2erj_normal_mot_HHH_b2_02303_000000050_0001_43_56_H_._HHH_b1_01620_af2_0001_0000100001_0000001_0 (protein)
chain: SSSSSEEEEEVAELAAEAAEIKDPEEAREVLEEALRIAEEINNELLRRYVELALRSVRRASSSSS
B16: il2ra_site2_3nfp_sap_17_mot_HHH_b2_08245_000000023_0001_41_55_H_._HHH_b1_01870_0001_0000400055_0000001_0_0001 (protein)
chain: SSSDEELAEEFIEWAEEAARLWGDEEVVRAIEELLERFRKEGDPKYAAEVSELLAEIIERGSSSS
B17: il2ra_site1_2b5i_normal_mot_HHH_b2_04910_000000118_0001_1_19_H_._HHH_b2_05595_af2_0001_0000100006_0000001_0_af2pred_dldesign_0_af2pred (protein)
chain: SSSSSAVKKALELFLEADRLKQEGKEEEAKELLEEAKRLAEEGKANLLVRIIESALEQLESSSSS
B18: il2ra_site1_3nfp_sap_18_mot_HHH_b1_02570_af2_000000297_0001_1_19_H_._HHH_b1_00894_0001_0000200014_0000001_0_0001_af2pred_0001_af2pred (protein)
chain: SDLEEEVRELIERIKEFAEKYNSPAAKLLAERLEEKARRAEENNDEELLRKVLEQAQESLEAGSS

Each binder was assayed against il2ra, P01589 (assay: yeast display titration).

Apparent Kd, inactive:
B1 no binding seen
B2 no binding seen
B3 no binding seen
B4 no binding seen
B5 no binding seen
B6 no binding seen
B7 no binding seen
B8 no binding seen
B9 no binding seen
B10 no binding seen
B11 no binding seen
B12 no binding seen
B13 no binding seen
B14 no binding seen
B15 no binding seen
B16 no binding seen
B17 no binding seen
B18 no binding seen

Fetched one by one from the list above:
Apparent Kd, inactive:
B17 no binding seen
B8 no binding seen
